{
  "sequences": {"note": "Amino acid sequences for entries named in this document (tags omitted). A change or cut given only in a name is not applied to a line headed by its entry.", "UniProt P61981": "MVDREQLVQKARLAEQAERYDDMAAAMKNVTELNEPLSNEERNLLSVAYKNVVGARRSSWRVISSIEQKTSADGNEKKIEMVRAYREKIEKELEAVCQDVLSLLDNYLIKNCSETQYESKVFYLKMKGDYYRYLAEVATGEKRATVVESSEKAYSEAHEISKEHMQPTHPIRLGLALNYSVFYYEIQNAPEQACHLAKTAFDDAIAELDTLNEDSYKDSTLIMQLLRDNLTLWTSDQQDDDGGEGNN", "UniProt P56192": "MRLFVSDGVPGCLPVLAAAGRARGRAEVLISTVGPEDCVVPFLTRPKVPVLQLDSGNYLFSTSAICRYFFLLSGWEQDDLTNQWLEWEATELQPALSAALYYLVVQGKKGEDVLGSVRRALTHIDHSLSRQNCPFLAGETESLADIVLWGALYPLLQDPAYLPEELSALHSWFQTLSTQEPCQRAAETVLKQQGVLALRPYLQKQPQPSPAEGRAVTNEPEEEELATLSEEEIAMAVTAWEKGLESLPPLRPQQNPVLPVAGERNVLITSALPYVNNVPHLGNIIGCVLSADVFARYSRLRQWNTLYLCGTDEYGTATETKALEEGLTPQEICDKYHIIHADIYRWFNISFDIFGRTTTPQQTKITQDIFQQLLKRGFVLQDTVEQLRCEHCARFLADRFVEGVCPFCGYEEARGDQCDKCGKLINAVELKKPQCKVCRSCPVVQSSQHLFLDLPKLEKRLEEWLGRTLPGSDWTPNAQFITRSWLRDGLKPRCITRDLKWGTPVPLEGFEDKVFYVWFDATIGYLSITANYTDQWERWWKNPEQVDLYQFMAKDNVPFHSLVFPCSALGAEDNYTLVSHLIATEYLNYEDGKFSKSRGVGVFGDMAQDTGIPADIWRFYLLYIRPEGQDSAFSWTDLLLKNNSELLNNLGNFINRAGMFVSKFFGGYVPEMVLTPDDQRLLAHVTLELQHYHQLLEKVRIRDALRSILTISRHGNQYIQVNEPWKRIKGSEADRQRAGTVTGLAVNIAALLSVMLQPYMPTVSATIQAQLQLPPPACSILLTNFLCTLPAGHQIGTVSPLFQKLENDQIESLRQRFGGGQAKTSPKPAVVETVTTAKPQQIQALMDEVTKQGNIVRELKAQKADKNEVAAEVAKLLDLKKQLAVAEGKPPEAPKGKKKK", "UniProt P54132": "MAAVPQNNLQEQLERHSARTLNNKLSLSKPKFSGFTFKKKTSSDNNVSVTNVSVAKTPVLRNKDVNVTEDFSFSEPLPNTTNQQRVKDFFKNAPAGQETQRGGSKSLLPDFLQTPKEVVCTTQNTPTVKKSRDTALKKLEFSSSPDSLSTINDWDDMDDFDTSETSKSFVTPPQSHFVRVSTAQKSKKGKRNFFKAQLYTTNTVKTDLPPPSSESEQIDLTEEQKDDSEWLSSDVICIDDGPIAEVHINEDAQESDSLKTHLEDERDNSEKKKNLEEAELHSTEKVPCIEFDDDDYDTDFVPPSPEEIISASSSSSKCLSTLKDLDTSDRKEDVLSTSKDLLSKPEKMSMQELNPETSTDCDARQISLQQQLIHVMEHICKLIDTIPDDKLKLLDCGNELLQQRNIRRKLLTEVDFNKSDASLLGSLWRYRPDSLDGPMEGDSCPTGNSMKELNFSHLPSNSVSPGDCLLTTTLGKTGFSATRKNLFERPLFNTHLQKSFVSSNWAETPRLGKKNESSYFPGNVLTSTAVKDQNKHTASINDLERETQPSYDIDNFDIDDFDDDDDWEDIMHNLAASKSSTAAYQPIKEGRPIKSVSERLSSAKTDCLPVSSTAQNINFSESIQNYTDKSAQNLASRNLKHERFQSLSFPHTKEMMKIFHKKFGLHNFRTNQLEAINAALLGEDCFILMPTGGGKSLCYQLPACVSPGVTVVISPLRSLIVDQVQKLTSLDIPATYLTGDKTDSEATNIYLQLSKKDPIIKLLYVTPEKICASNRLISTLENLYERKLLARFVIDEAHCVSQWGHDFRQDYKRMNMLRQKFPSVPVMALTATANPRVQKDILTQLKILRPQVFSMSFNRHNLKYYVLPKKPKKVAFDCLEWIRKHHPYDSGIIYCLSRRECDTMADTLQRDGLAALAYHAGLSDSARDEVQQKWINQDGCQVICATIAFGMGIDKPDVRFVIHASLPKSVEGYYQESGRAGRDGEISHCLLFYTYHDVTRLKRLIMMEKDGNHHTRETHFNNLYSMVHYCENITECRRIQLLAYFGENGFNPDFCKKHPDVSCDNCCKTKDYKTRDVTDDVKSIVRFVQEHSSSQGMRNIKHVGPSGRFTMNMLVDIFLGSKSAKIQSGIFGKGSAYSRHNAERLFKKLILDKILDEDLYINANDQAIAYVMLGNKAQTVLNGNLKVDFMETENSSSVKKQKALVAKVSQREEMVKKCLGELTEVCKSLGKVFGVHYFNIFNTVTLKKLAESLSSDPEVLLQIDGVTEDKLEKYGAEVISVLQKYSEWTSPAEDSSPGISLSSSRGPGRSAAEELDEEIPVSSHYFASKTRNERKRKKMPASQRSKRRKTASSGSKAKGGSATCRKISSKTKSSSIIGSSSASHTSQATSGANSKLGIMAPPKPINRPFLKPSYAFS", "UniProt P55060": "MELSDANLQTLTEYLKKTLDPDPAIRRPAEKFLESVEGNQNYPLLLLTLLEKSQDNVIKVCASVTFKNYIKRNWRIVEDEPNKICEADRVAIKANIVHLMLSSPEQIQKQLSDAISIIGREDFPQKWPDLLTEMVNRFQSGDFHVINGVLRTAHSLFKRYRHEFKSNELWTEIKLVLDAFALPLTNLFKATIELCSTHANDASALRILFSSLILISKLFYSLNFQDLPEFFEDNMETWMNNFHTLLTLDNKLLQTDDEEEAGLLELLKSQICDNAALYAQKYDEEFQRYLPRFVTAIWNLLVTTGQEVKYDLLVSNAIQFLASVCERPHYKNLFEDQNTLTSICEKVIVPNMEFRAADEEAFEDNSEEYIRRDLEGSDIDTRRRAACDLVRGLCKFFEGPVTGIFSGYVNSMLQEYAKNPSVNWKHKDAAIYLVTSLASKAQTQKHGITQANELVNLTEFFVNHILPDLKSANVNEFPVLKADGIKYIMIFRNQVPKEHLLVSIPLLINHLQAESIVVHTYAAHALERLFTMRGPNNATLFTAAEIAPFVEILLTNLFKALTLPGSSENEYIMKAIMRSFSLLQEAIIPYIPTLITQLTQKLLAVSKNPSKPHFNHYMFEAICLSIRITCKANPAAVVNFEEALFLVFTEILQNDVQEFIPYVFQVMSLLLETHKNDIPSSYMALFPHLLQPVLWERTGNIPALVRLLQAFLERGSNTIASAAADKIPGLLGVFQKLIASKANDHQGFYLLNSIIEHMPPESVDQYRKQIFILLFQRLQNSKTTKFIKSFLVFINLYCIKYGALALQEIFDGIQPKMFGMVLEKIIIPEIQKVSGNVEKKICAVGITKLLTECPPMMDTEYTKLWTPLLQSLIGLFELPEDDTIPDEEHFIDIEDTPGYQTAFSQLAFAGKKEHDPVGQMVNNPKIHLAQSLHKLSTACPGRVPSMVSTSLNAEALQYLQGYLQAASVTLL", "UniProt P52948": "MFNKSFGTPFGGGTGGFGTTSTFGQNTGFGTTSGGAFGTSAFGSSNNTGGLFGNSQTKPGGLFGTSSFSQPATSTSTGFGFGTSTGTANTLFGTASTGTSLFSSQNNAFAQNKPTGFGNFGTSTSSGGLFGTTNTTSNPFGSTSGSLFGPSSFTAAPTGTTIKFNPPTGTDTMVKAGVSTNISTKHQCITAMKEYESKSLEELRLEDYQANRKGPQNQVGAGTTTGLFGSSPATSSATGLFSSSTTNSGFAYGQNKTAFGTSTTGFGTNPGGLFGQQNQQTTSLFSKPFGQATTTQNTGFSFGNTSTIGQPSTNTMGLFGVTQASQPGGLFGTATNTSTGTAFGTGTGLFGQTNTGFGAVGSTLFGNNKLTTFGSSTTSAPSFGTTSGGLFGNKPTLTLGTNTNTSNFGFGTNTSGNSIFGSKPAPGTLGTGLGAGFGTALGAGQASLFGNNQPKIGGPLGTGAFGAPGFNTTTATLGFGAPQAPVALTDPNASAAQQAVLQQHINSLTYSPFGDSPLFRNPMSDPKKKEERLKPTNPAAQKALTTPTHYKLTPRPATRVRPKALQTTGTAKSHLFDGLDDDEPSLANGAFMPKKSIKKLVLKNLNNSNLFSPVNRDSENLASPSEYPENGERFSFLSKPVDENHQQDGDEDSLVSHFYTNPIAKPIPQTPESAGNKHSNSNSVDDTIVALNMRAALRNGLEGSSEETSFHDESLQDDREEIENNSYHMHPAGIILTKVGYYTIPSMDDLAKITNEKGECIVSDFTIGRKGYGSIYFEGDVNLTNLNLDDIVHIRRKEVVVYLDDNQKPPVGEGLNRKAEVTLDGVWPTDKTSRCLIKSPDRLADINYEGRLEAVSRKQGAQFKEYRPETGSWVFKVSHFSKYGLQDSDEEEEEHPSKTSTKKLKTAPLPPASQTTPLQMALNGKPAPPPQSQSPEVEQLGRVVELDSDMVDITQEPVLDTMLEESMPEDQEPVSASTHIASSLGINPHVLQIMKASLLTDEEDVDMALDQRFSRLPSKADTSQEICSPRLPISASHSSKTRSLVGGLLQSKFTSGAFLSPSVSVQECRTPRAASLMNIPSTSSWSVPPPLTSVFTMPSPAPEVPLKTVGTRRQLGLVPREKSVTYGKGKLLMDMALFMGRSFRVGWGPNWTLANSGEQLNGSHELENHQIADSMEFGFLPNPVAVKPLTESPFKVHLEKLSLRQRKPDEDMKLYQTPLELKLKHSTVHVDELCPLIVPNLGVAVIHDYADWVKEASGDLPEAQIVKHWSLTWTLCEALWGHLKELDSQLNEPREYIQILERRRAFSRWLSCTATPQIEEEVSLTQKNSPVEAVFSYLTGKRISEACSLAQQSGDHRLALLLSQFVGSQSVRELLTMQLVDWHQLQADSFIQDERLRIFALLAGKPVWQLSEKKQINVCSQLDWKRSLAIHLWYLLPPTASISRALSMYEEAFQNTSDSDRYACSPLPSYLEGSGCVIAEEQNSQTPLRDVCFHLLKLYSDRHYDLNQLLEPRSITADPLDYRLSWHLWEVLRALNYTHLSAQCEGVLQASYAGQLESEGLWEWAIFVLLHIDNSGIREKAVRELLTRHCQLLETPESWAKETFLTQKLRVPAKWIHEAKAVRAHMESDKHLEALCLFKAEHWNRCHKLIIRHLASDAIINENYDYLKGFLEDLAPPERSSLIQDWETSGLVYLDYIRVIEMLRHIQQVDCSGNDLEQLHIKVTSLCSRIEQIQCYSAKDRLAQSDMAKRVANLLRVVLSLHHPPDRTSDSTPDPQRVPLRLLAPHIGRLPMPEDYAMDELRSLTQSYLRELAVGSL", "UniProt P53621": "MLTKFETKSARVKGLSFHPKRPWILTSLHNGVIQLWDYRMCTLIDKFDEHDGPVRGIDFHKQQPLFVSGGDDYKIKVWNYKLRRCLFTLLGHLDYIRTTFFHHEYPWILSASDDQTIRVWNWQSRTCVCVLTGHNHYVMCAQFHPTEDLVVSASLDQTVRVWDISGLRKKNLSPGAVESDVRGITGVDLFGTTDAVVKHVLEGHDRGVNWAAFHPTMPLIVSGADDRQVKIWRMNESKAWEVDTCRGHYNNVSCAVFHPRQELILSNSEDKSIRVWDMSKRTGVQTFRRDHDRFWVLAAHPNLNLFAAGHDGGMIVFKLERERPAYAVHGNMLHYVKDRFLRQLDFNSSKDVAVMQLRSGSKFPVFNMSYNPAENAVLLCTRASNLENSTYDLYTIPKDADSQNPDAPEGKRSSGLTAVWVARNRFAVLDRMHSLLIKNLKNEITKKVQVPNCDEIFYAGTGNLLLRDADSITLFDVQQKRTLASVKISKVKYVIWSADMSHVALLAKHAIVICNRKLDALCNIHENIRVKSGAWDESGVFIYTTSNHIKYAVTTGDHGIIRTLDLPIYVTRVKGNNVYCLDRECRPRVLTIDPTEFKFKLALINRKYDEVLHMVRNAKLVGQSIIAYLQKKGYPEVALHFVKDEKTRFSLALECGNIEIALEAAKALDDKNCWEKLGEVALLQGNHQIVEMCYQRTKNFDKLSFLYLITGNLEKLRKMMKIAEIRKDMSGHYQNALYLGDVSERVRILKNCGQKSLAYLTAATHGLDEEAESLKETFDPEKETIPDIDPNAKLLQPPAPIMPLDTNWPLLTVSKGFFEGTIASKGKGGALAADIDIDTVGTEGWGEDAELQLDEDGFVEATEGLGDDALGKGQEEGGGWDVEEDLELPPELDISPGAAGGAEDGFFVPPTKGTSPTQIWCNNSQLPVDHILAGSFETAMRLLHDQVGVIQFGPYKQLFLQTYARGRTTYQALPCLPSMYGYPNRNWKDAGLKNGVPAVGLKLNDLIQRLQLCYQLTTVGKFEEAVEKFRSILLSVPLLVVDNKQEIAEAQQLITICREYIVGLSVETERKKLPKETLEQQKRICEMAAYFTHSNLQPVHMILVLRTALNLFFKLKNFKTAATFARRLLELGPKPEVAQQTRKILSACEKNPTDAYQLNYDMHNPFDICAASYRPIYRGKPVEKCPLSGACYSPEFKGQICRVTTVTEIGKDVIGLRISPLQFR"},
  "source": "the supplement of paper PMC11006884",
  "note": "The list shows a part of the results, in another mix than the full data.",
  "data": [
    {"compound": "COC(=O)C#Cc1ccccc1 [methyl 3-phenylpropiolate]", "experiment": "log2 ratio of iodoacetamide-alkyne labeling of the cysteine site, DMSO over compound (competition); higher = stronger covalent engagement of the cysteine by the compound, active = 1 or more", "settings": "500 µM; treatment time 1 h; system: HEK293T cell lysate", "outline": "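Reporter intensities give each cysteine's log2 competition ratio as the mean of control channels over the mean of compound channels. The samples were HEK293T lysate (2 mg/mL) given vehicle or electrophile (500 µM, 1 h, ambient temperature), then iodoacetamide alkyne (1 h), followed by click coupling to sCIP-TMT reagents, pooling, trypsin digestion overnight at 37 °C, streptavidin enrichment, acid elution, Orbitrap Eclipse LC-MS/MS with FAIMS and FragPipe quantification. Duplicate channels and three replicates were run, and cysteines quantified in only one replicate were discarded.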", "values": [
      {"target": "NUBP1 C22 (UniProt P53384)", "log2 ratio of iodoacetamide-alkyne labeling": "active: 2.24"},
      {"target": "UniProt P61289_C92", "log2 ratio of iodoacetamide-alkyne labeling": "inactive: 0.491"},
      {"target": "THOP1 C689 (UniProt P52888)", "log2 ratio of iodoacetamide-alkyne labeling": "inactive: 0.174"},
      {"target": "AK2 C42 (UniProt P54819)", "log2 ratio of iodoacetamide-alkyne labeling": "inactive: 0.229"},
      {"target": "HNRNPF C122 (UniProt P52597)", "log2 ratio of iodoacetamide-alkyne labeling": "inactive: 0.157"},
      {"target": "UniProt P61981_C97", "log2 ratio of iodoacetamide-alkyne labeling": "inactive: -0.213"},
      {"target": "PSMD4 C9 (UniProt P55036)", "log2 ratio of iodoacetamide-alkyne labeling": "inactive: -0.106"},
      {"target": "MARS C287 (UniProt P56192)", "log2 ratio of iodoacetamide-alkyne labeling": "inactive: -0.00466"},
      {"target": "PSMD4 C87 (UniProt P55036)", "log2 ratio of iodoacetamide-alkyne labeling": "inactive: 0.0446"},
      {"target": "UniProt P60763_C157", "log2 ratio of iodoacetamide-alkyne labeling": "inactive: -0.0139"},
      {"target": "BLM C361 (UniProt P54132)", "log2 ratio of iodoacetamide-alkyne labeling": "inactive: 0.519"},
      {"target": "MARS C12 (UniProt P56192)", "log2 ratio of iodoacetamide-alkyne labeling": "inactive: 0.428"},
      {"target": "UniProt P61224_C141", "log2 ratio of iodoacetamide-alkyne labeling": "inactive: 0.129"},
      {"target": "ACTR3 C34 (UniProt P61158)", "log2 ratio of iodoacetamide-alkyne labeling": "inactive: 0.0333"},
      {"target": "KPNA1 C337 (UniProt P52294)", "log2 ratio of iodoacetamide-alkyne labeling": "inactive: 0.228"},
      {"target": "UniProt P60763_C178", "log2 ratio of iodoacetamide-alkyne labeling": "inactive: -0.0321"},
      {"target": "PPP5C C77 (UniProt P53041)", "log2 ratio of iodoacetamide-alkyne labeling": "inactive: 0.135"},
      {"target": "USP46 C10 (UniProt P62068)", "log2 ratio of iodoacetamide-alkyne labeling": "inactive: 0.797"},
      {"target": "METAP1 C14 (UniProt P53582)", "log2 ratio of iodoacetamide-alkyne labeling": "inactive: 0.325"},
      {"target": "CSE1L C387 (UniProt P55060)", "log2 ratio of iodoacetamide-alkyne labeling": "inactive: 0.716"},
      {"target": "NUP98 C1027 (UniProt P52948)", "log2 ratio of iodoacetamide-alkyne labeling": "inactive: 0.378"},
      {"target": "UniProt P61978_C205", "log2 ratio of iodoacetamide-alkyne labeling": "inactive: 0.0241"},
      {"target": "COPA C975 (UniProt P53621)", "log2 ratio of iodoacetamide-alkyne labeling": "inactive: 0.0469"}
    ]}
  ]
}
